# Measured values from the supplement of paper PMC6411743.
# The chains behind the UniProt entries cited, without tags or fusion partners. Where a name states a change or a piece, a line headed by the entry shows the natural chain unless it says otherwise.
# UniProt Q9P2N5: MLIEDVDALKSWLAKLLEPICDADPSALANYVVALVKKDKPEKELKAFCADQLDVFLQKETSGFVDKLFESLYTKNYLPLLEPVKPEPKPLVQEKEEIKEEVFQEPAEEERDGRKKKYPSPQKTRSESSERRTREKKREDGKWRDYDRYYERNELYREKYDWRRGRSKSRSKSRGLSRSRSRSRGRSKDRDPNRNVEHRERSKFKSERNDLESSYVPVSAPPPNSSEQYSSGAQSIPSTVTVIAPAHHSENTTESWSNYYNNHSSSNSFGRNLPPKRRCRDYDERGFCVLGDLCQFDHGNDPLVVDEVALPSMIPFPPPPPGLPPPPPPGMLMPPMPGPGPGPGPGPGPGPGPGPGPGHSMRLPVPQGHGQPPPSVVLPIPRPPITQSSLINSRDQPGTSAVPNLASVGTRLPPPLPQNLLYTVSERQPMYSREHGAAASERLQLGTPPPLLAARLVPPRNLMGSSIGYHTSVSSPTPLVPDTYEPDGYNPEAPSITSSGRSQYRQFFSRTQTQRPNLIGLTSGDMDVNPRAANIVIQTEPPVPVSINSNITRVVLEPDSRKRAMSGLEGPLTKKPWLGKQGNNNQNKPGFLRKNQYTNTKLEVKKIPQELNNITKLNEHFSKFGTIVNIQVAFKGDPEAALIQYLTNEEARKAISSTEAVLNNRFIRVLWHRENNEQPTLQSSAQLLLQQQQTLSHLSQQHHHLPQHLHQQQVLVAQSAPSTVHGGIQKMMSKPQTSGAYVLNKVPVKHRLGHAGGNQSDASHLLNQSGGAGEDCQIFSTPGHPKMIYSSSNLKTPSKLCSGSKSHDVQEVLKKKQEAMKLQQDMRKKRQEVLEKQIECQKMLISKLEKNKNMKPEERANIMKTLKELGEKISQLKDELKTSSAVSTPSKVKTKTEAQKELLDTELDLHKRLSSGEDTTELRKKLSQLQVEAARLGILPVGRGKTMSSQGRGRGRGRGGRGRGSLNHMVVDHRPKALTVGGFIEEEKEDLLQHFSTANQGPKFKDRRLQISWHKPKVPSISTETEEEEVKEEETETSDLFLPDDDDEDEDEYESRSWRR
# UniProt Q9UFC0: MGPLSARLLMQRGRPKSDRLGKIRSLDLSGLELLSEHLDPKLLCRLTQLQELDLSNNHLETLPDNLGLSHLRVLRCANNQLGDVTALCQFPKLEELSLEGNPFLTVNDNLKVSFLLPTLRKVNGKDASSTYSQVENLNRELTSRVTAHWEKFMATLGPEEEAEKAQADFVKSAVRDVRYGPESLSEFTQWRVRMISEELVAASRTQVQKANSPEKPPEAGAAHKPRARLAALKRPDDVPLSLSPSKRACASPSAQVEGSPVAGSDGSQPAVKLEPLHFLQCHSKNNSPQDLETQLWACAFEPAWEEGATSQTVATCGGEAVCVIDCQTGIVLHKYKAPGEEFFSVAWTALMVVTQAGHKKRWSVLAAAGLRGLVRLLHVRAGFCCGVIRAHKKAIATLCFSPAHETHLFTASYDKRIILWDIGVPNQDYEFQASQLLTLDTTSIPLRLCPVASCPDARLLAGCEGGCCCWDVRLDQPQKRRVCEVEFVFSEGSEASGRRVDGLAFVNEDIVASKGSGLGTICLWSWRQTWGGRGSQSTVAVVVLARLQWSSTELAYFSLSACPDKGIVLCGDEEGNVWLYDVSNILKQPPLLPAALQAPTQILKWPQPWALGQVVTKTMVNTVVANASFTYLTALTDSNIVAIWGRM
# UniProt Q9UKN8: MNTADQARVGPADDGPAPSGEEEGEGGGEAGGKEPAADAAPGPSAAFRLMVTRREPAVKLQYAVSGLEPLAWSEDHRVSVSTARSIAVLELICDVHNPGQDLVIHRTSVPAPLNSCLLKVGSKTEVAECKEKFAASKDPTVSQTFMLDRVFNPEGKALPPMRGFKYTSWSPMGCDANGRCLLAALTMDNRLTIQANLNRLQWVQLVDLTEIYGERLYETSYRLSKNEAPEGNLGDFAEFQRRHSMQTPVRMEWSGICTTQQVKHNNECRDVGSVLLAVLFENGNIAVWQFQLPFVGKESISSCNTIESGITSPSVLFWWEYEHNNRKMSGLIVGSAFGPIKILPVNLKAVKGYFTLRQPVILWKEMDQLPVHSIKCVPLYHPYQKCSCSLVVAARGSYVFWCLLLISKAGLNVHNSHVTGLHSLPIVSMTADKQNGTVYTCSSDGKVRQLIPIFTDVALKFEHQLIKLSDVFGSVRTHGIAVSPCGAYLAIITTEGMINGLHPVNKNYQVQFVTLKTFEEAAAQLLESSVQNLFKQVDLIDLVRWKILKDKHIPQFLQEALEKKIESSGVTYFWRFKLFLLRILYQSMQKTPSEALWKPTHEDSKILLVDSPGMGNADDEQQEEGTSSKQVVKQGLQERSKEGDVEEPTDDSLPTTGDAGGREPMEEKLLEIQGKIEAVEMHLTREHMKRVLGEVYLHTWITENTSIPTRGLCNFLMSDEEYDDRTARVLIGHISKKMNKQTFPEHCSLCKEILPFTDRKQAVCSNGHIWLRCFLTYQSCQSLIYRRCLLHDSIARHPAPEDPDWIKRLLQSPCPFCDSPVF
# UniProt Q9P2R3: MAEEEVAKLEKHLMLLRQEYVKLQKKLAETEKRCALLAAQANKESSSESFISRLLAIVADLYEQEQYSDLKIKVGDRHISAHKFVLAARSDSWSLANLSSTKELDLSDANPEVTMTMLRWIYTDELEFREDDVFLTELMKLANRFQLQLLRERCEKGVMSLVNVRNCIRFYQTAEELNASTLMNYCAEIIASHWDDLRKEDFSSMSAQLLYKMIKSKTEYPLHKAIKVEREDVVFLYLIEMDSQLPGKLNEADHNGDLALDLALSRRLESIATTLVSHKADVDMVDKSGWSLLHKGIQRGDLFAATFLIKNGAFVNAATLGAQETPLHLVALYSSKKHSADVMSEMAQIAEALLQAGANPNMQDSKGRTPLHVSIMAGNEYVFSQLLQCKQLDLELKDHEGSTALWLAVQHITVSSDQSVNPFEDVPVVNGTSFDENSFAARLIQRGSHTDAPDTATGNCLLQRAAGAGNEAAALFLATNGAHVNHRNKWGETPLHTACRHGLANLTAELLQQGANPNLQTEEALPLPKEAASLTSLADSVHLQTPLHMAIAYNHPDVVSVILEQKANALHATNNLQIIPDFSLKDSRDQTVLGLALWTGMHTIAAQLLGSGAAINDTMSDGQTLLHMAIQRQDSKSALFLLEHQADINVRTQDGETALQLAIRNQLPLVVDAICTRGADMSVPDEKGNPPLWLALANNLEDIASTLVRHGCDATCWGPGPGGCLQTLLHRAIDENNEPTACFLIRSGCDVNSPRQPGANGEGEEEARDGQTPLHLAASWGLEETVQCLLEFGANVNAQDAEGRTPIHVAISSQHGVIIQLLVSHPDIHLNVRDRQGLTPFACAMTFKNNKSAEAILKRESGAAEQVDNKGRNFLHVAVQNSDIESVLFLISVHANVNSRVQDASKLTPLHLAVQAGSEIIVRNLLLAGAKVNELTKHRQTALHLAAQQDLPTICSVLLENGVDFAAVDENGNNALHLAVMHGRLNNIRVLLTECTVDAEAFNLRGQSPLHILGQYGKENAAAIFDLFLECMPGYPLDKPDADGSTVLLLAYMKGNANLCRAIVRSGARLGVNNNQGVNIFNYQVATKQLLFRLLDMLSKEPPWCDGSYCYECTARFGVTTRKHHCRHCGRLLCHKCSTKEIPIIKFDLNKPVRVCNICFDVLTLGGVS
# UniProt Q9UJT0: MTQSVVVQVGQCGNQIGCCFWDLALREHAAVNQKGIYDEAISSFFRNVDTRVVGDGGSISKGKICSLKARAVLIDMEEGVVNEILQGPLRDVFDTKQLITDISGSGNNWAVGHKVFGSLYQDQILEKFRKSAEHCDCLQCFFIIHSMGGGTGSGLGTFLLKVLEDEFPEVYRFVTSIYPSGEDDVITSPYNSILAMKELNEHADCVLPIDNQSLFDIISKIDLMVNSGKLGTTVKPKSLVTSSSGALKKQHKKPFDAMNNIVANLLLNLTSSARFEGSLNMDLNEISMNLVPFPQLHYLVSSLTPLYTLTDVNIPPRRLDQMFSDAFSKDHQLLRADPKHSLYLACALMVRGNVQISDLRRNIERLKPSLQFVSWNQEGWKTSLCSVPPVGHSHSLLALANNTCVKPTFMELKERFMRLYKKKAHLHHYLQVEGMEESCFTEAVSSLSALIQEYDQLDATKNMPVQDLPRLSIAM
# UniProt Q9Y295: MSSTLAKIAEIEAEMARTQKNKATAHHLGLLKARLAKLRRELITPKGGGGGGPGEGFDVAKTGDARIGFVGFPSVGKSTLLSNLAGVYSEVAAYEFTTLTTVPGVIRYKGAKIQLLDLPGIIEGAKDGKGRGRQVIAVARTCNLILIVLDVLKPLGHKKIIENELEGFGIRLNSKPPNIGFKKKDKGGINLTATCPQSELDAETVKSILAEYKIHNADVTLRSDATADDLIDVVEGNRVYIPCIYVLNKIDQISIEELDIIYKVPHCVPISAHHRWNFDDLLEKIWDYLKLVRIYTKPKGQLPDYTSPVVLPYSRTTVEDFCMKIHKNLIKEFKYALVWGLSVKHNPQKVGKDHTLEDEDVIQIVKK
# UniProt Q9UPY3: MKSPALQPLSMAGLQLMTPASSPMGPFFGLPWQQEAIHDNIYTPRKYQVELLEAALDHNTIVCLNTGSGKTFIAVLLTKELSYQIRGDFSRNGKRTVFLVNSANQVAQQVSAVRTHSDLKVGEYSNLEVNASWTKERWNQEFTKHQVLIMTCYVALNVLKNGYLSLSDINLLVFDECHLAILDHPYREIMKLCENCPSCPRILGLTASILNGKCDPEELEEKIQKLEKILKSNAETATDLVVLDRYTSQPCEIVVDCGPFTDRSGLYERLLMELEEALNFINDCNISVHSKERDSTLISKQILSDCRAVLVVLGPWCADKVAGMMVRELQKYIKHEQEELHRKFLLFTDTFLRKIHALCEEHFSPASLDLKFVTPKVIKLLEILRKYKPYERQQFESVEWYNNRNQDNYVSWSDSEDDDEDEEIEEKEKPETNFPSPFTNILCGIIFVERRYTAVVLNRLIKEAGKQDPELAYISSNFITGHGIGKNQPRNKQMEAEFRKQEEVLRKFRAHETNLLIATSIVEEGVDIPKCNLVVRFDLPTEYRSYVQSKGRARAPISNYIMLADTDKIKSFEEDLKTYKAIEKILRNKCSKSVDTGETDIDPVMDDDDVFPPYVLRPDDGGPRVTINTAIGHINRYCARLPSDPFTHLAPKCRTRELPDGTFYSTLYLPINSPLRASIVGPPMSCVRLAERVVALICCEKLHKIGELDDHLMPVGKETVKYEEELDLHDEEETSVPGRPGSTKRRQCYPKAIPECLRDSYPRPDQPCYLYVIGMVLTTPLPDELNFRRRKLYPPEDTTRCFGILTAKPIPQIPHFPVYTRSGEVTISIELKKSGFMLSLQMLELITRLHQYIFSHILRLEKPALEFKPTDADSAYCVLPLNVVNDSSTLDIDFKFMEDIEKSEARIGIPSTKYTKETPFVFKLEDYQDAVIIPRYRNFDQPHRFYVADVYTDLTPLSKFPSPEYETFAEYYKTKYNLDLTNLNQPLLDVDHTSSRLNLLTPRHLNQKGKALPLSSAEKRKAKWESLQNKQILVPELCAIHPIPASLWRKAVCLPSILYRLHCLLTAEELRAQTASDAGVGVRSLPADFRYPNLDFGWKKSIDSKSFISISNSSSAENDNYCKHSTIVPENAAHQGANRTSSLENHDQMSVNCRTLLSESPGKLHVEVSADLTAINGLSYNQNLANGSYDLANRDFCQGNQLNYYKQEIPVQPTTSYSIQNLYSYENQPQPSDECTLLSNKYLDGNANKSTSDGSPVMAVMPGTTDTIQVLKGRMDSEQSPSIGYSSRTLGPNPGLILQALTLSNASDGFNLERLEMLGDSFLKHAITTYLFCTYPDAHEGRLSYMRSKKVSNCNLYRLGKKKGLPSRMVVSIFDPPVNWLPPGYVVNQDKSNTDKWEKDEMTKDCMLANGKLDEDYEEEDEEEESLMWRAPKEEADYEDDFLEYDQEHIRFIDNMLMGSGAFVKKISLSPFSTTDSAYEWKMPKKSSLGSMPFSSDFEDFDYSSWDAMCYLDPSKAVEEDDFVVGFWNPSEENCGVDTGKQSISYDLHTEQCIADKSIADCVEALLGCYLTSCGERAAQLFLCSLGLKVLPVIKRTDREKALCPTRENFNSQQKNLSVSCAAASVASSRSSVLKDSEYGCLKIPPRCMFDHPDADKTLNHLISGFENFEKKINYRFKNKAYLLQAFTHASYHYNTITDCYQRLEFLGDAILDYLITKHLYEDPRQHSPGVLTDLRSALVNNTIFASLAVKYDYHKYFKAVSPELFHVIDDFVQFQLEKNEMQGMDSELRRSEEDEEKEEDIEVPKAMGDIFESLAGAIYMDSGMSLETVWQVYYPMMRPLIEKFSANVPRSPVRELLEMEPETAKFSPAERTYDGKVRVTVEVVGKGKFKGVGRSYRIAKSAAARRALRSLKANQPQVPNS
# ± gives the standard deviation of the averaged measurements. The entries are a selection whose mix differs from that of the whole data set.
# Compound: Nc1ncnc2c1ncn2[C@@H]1O[C@H](COP(=O)(O)OP(=O)(O)OP(=O)(O)O)[C@@H](O)[C@H]1O [adenosine triphosphate]
# Assay: NP40-soluble protein abundance relative to vehicle (solubility fold change) (ratio); higher = more soluble protein in presence of ATP
# Summary of the method: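 Eight concentrations, 0.1 to 10 mM, were tested on Jurkat crude lysate for 10 min at room temperature and then 3 min at 37 °C, in three independent experiments. The lysate was solubilised with 0.8% NP40 and benzonase, ultracentrifuged, and the supernatant TMT-labelled for LC-MS/MS. Each value is the fold change against the detergent-processed vehicle in its own replicate, from vsn-normalised intensities.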
Target,NP40-soluble protein abundance (concentration: 1mM),NP40-soluble protein abundance (concentration: 2mM),NP40-soluble protein abundance (concentration: 4mM),NP40-soluble protein abundance (concentration: 6mM),NP40-soluble protein abundance (concentration: 8mM),NP40-soluble protein abundance (concentration: 10mM)
UniProt Q9UM21,0.991 ± 0.11,1.03 ± 0.054,1.04 ± 0.055,0.994 ± 0.079,0.996 ± 0.01,1.02 ± 0.065
RBM27 (UniProt Q9P2N5),1.43 ± 0.069,1.49 ± 0.039,1.49 ± 0.024,1.6 ± 0.079,1.525 ± 0.0033,1.56 ± 0.023
UniProt Q9UQ49 and related entries,0.985 ± 0.16,0.971 ± 0.074,0.961 ± 0.059,0.795 ± 0.31,0.811 ± 0.21,1.02 ± 0.06
LRWD1 (UniProt Q9UFC0),1.04 ± 0.039,1.03 ± 0.048,1.02 ± 0.049,1.02 ± 0.044,1.03 ± 0.054,1.02 ± 0.027
DUSP12 (UniProt Q9UNI6),1.02 ± 0.1,1.02 ± 0.1,1.06 ± 0.042,1.05 ± 0.13,1.07 ± 0.077,1.07 ± 0.064
SEC63 (UniProt Q9UGP8),1.01 ± 0.03,1.01 ± 0.023,0.962 ± 0.05,0.999 ± 0.042,0.976 ± 0.028,0.947 ± 0.025
UniProt Q9UBP0 and related entries,0.985 ± 0.02,1.01 ± 0.014,1.01 ± 0.027,1.03 ± 0.018,0.98 ± 0.041,1.028 ± 0.0089
RERE (UniProt Q9P2R6),0.95 ± 0.049,0.953 ± 0.038,0.984 ± 0.046,0.967 ± 0.022,0.946 ± 0.05,0.933 ± 0.05
GTF3C4 (UniProt Q9UKN8),1.06 ± 0.043,1.03 ± 0.015,1.05 ± 0.012,1.02 ± 0.024,1.04 ± 0.013,1.04 ± 0.029
UniProt Q9P2R3 and related entries,1.01 ± 0.082,0.99 ± 0.062,0.992 ± 0.051,0.922 ± 0.088,0.987 ± 0.035,0.992 ± 0.046
UniProt Q9P2D3 and related entries,0.963 ± 0.021,0.975 ± 0.037,0.99 ± 0.017,0.939 ± 0.061,1.01 ± 0.032,0.996 ± 0.054
UniProt Q9P275 and related entries,1.05 ± 0.065,1.08 ± 0.074,1.21 ± 0.052,1.29 ± 0.15,1.35 ± 0.17,1.44 ± 0.12
TBK1 (UniProt Q9UHD2),1 ± 0.084,0.965 ± 0.06,0.968 ± 0.056,0.929 ± 0.086,1.01 ± 0.05,0.95 ± 0.048
TUBE1 (UniProt Q9UJT0),1.01 ± 0.077,1 ± 0.07,1.01 ± 0.062,1.02 ± 0.057,1.07 ± 0.063,1.03 ± 0.06
UniProt Q9UIS9 and related entries,1.05 ± 0.071,1.1 ± 0.08,1.16 ± 0.16,1.2 ± 0.14,1.19 ± 0.16,1.17 ± 0.12
DRG1 (UniProt Q9Y295),1.01 ± 0.017,1 ± 0.032,0.971 ± 0.042,0.974 ± 0.086,0.987 ± 0.048,0.961 ± 0.024
DICER1 (UniProt Q9UPY3),0.995 ± 0.041,1.01 ± 0.026,0.991 ± 0.02,1 ± 0.052,1 ± 0.027,0.972 ± 0.04

# Quoted at random: 2 records from the list.
Target,NP40-soluble protein abundance (concentration: 1mM),NP40-soluble protein abundance (concentration: 2mM),NP40-soluble protein abundance (concentration: 4mM),NP40-soluble protein abundance (concentration: 6mM),NP40-soluble protein abundance (concentration: 8mM),NP40-soluble protein abundance (concentration: 10mM)
DRG1 (UniProt Q9Y295),1.01 ± 0.017,1 ± 0.032,0.971 ± 0.042,0.974 ± 0.086,0.987 ± 0.048,0.961 ± 0.024
UniProt Q9UIS9 and related entries,1.05 ± 0.071,1.1 ± 0.08,1.16 ± 0.16,1.2 ± 0.14,1.19 ± 0.16,1.17 ± 0.12
